Reference: patent publication US9511045B2, “Use of riluzole for treating or preventing the adverse effects of antineoplastic agents” (UNIVERSITE D'AUVERGNE CLERMONT I, priority 2010, dated 2016)
Entries after “also recorded” stand apart in the source; their conditions may differ. Read-outs that look alike come from different tables or passages of the source.

Tested on: Male Sprague-Dawley rats
Details: for statistical data analysis of reaction times versus control: FIG. 1, FIG. 2
Experimental: Male Sprague-Dawley rats (Charles River Lab, France), weighing 175 to 200 grams, were placed in a cage with food and water ad libitum, in a temperature-controlled environment at 22° C. with a 12 h/12 h day/night cycle. The experiments were conducted under blind conditions in a calm room by the same experimenter, while taking care to comply with the regulations on animal experimentation.
This low-temperature immersion test made it possible to measure the hypersensitivity to cold in the animals. The bottom third of the rat's tail was immersed in a temperature-controlled bath 10° C. until it was removed or until the “cut-off” set at 30 seconds (Necker and Hellon. 1978 Pain. 4: 231-242).
The experimental data was analyzed using the software program Sigma STAT, version 3.0 for Windows (STAT32 Software Inc., San Diego, Calif.). The kinetics of the reaction times to the temperature-based stimulation were analyzed using a two-factor variance analysis followed by a multiple comparison test to study the change over time. […] The significance threshold was P<0.05.

## Nc1nc2ccc(OC(F)(F)F)cc2s1 [riluzole, 2-amino-6-trifluoro-methoxy-benzothiazole]
Oxaliplatin animals treated with riluzole
  reaction time to cold compared with that observed before injection of oxaliplatin: higher reaction time to cold (less sensitivity)
Rat animal model
  effect on oxaliplatin-induced cold hypersensitivity: capable of correcting hypersensitivity to cold; also recorded: corrected the oxaliplatin-induced cold hypersensitivity
Riluzole 5 mg/kg, p<0.05
  statistical data analysis of reaction times versus control: significant differences
Riluzole 5 mg/kg, tail immersion 10° C., 15-120 minutes after injection, FIG. 1
  reaction times of the rat treated with oxaliplatin after injection of riluzole: considerably higher
Riluzole 7.5 mg/kg, p<0.001
  statistical data analysis of reaction times versus control: significant differences
